# Structures can show the parent of a compound that is named as a salt. The list shows a part of the results. Small differences around the control level are noise. Where a SMILES comes first, the peptide text is derived from it. Bridges are numbered along the chain shown (N, C = ends). [ ]: non-standard residue; d: D form. hArg = N=C(N)NCCCC[C@H](N)C(=O)O; Mpa = O=C(O)CCS
# How the values were obtained:
# Conditions in all cases: 5 µM; treatment: days 7-14 after plating, readout day 21
# [1] = tested on: hPSC-derived cortical neurons (WA09); test: nucleus area z-score vs screen plate; higher = larger nuclei (more mature)
# [2] = tested on: hPSC-derived cortical neurons (WA09); test: total neurite length per nucleus (MAP2) z-score; higher = more neurite growth
# [3] = tested on: hPSC-derived cortical neurons (WA09); test: nucleus roundness z-score vs screen plate; higher = rounder nuclei (more mature)
# [4] = tested on: hPSC-derived cortical neurons (WA09); test: KCl-induced FOS+/EGR-1+ double-positive nuclei fraction z-score (KCl minus unstimulated); higher = stronger activity-induced IEG response
SMILES,nucleus area z-score [1],total neurite length per nucleus (z-score) [2],nucleus roundness z-score [3],KCl-induced FOS+/EGR-1+ double-positive nuclei fraction z-score [4]
CC(C)C(=O)Nc1ccc([N+](=O)[O-])c(C(F)(F)F)c1 [Flutamide],0.763,-0.0044,-1.8,1.12
CC(=O)Oc1cc2c(s1)CCN(C(C(=O)C1CC1)c1ccccc1F)C2 (stereo unspecified) [Prasugrel],1.84,-0.705,-1.04,-0.74
CN(Cc1cc(Br)cc(Br)c1N)C1CCCCC1 [Bromhexine HCl],0.103,-1.02,-1.45,-1.31
CCCCOc1ccc(OCCCN2CCOCC2)cc1 [Pramoxine HCl],0.987,-0.908,-2.03,-0.805
O=C(C=Cc1ccccc1)NC(NC(=S)Nc1ccc(Cl)cc1)C(Cl)(Cl)Cl (stereo unspecified),0.75,0.818,0.00293,1.23
NC(=O)[C@@H]1CSSCCC(=O)N[C@@H](CCCCN=C(N)N)C(=O)NCC(=O)N[C@@H](CC(=O)O)C(=O)N[C@@H](Cc2c[nH]c3ccccc23)C(=O)N2CCC[C@H]2C(=O)N1 [Eptifibatide Acetate] ([Mpa][hArg]GDWPC-NH2; disulfide 1-7),-0.00379,-0.448,-0.52,0.84
C/C=C1\NC(=O)[C@H]2CSSCC/C=C/[C@H](CC(=O)N[C@H](C(C)C)C(=O)N2)OC(=O)[C@H](C(C)C)NC1=O [Romidepsin (FK228_ Depsipeptide)],-13.1,-4.61,-0.501,-0.41
CS(=O)(=O)c1ccc(C2=C(c3ccccc3)C(=O)OC2)cc1 [Rofecoxib],1.13,1,0.994,1.44
CC(=O)O[C@]1(C(C)=O)CC[C@H]2[C@@H]3C[C@H](C)C4=CC(=O)C=C[C@]4(C)[C@@]3(F)[C@@H](O)C[C@@]21C [Fluorometholone Acetate],-0.47,0.145,0.0197,-0.558
CS(=O)(=O)CCNCc1ccc(-c2ccc3ncnc(Nc4ccc(OCc5cccc(F)c5)c(Cl)c4)c3c2)o1,-0.656,-0.909,-0.541,1.48
CC[C@H](NC(=O)[C@H](C)NC)C(=O)N1C[C@@H](O)C[C@H]1Cc1c(-c2[nH]c3cc(F)ccc3c2C[C@@H]2C[C@H](O)CN2C(=O)[C@H](CC)NC(=O)[C@H](C)NC)[nH]c2cc(F)ccc12 [Birinapant],-0.394,0.772,-0.371,0.777
Cc1ccc2nc(NCCN)c3ncc(C)n3c2c1,0.94,-0.477,-0.877,0.808
CN1C2CCC1CC(OC(=O)C(O)c1ccccc1)C2 (stereo unspecified) [Homatropine Bromide],0.0223,0.13,-1.13,0.206
CC(=O)NC(CC(C)C)C(=O)O (stereo unspecified) [Acetylleucine],0.834,-0.0143,0.0974,0.439
O=C(Oc1ccccc1C(=O)O)c1ccccc1O [Sasapyrine],0.36,0.441,0.312,0.594
CC(=O)[C@H]1CC[C@H]2[C@@H]3CCC4=CC(=O)CC[C@]4(C)[C@H]3CC[C@]12C [Progesterone],-0.763,-0.593,-1.15,-1.11
N#Cc1c(NC(=O)c2cccc3ccccc23)sc2c1CCCC2 [JNK Inhibitor IX],-0.512,0.26,0.496,-0.396
COc1ccc(C(=O)Nc2sc3c(c2C(N)=O)CCCC3)cc1OC,1.27,-0.508,0.0742,0.015
O.O.O.O.O=C([O-])CC(O)(CC(=O)[O-])C(=O)[O-].[Li+].[Li+].[Li+] [Citric acid trilithium salt tetrahydrate],-0.551,0.266,1.02,1.24
CC1CCc2cc(F)cc3c(=O)c(C(=O)O)cn1c23 (stereo unspecified) [Flumequine],0.304,0.133,0.106,0.019
Cc1cc(=O)[nH]c(=S)[nH]1 [Methylthiouracil],-0.172,1.09,-0.211,2.01
CCc1ccc(CCOc2ccc(CC3SC(=O)NC3=O)cc2)nc1 (stereo unspecified) [Pioglitazone],-0.104,0.914,0.103,0.662
CN1CCC(=C2c3ccccc3CCc3cccnc32)CC1 [Azatadine dimaleate],0.216,0.778,1.19,2.58
COc1cc(NC(=O)c2ccc(-c3ccc(Cl)cc3)o2)cc(OC)c1,-0.381,0.497,0.0486,0.449
COc1ccc(-c2ccc3c(N4CCOC[C@@H]4C)nc(N4CCOC[C@@H]4C)nc3n2)cc1CO,-5.24,-1.34,-3.45,-0.998

# Entries of single compounds as entered above. Order of values: nucleus area z-score [1] | total neurite length per nucleus (z-score) [2] | nucleus roundness z-score [3] | KCl-induced FOS+/EGR-1+ double-positive nuclei fraction z-score [4]
# `CCCCOc1ccc(OCCCN2CCOCC2)cc1` [Pramoxine HCl] is listed with 0.987 | -0.908 | -2.03 | -0.805
# `CS(=O)(=O)CCNCc1ccc(-c2ccc3ncnc(Nc4ccc(OCc5cccc(F)c5)c(Cl)c4)c3c2)o1` is listed with -0.656 | -0.909 | -0.541 | 1.48

# Later entries

SMILES,nucleus area z-score [1],total neurite length per nucleus (z-score) [2],nucleus roundness z-score [3],KCl-induced FOS+/EGR-1+ double-positive nuclei fraction z-score [4]
CC(C)(C)OC(=O)N[C@H]1CCCCC/C=C\[C@@H]2C[C@@]2(C(=O)NS(=O)(=O)C2CC2)NC(=O)[C@@H]2C[C@@H](OC(=O)N3Cc4cccc(F)c4C3)CN2C1=O [Danoprevir (ITMN-191)],0.147,0.247,0.563,0.729
N[C@H]1C[C@@H]1c1ccc(-c2cccc(O)c2)cc1,1.63,1.05,0.828,0.967
CC(C)CC(NC(=O)C(Cc1ccccc1)NC(=O)C(CCC(N)=O)NC(=O)C(Cc1ccc(O)cc1)NC(=O)C(C)NC(=O)CNC(=O)C(CCCCN)NC(=O)C(Cc1c[nH]c2ccccc12)NC(=O)C(NC(=O)C(Cc1c[nH]c2ccccc12)NC(=O)C(CCCCN)NC(=O)CNC(=O)C(CC(N)=O)NC(=O)C(CCC(=O)O)NC(=O)C(Cc1c[nH]c2ccccc12)NC(=O)C(NC(=O)C(Cc1c[nH]c2ccccc12)NC(=O)C(CO)NC(=O)CNC(=O)C1CCCN1C(=O)C(Cc1c[nH]c2ccccc12)NC(=O)C(CCC(N)=O)NC(=O)C(Cc1ccccc1)NC(=O)CNC(=O)C(N)Cc1c[nH]cn1)C(C)O)C(C)O)C(=O)NC(CCCCN)C(=O)NCC(=O)NCC(=O)NCC(=O)NCC(=O)NC(CO)C(=O)NC(CCCNC(=N)N)C(=O)NC(CCCNC(=N)N)C(=O)NC(CCCNC(=N)N)C(=O)NC(CCCNC(=N)N)C(=O)NC(CCCNC(=N)N)C(=O)NC(CCCNC(=N)N)C(=O)NC(CCCNC(=N)N)C(=O)NC(CCCNC(=N)N)C(=O)NC(CCCNC(=N)N)C(=O)O (stereo unspecified) (H-HGFQWPGSWTWENGKWTWKGAYQFLKGGGGSRRRRRRRRR-OH; configuration not given here),-4.85,0.0677,-2.18,0.09
CCOC(=O)c1[nH]c2cc(Cl)ccc2c1C(C(=O)NC(C)(C)C)N(C=O)Cc1ccc(Cl)cc1 (stereo unspecified),0.527,0.164,-0.459,-1.07
O=C(O)CCCc1c[nH]c2ccccc12 [3-Indolebutyric acid (IBA)],-0.743,0.4,1.02,0.911
COc1ccc(O)cc1 [Mequinol],-0.0196,-0.118,0.0394,-0.731
"c1ccc(C2CN3CCSC3=N2)cc1 (single isomer, unassigned; (-)) [(-)-Tetramisole]",0.572,0.0839,-0.668,0.606
N=C(N)N/N=C/c1c(Cl)cccc1Cl [Guanabenz Acetate],-1.01,-0.286,-1.16,0.582
C[C@H]1C[C@@H]2[C@H]([C@@H](O)C[C@@]3(C)[C@H]2CC[C@]3(O)C(=O)CO)[C@@]2(C)C=CC(=O)C=C12 [Methylprednisolone],0.0408,-0.0864,-0.393,0.112
O=C(CCNNC(=O)c1ccncc1)NCc1ccccc1 [Nialamide],0.488,-0.598,-0.744,-0.423
CN1CC2c3ccccc3Oc3ccc(Cl)cc3C2C1 (stereo unspecified) [Asenapine],0.541,-1.76,-1.21,-0.917
CC(C)(CO)[C@@H](O)C(=O)NCCCO [D panthenol],0.354,-0.219,0.193,0.783
Nc1ccc(C(=O)O)cc1 [4-Aminobenzoic acid],0.904,0.361,-0.508,1.19
Cc1csc(-c2nnc(Nc3ccc(Oc4ncccc4-c4ccnc(N)n4)cc3)c3ccccc23)c1,1.43,0.379,0.354,-0.276
O=C(O)c1ccc2c(c1)nc(Nc1cccc(Cl)c1)c1ccncc12 [CX-4945 (Silmitasertib)],0.00166,0.0507,-1.02,1.15
N#C[C@@H]1CCCN1C(=O)CNC12CC3CC(CC(O)(C3)C1)C2 [Vildagliptin (LAF-237)],-0.197,-0.808,-0.306,0.529
CC[C@@H]1/C=C(\C)C[C@H](C)C[C@H](OC)[C@H]2O[C@@](O)(C(=O)C(=O)N3CCCC[C@H]3C(=O)O[C@H](/C(C)=C/[C@@H]3CC[C@@H](O)[C@H](OC)C3)[C@H](C)[C@@H](O)CC1=O)[C@H](C)C[C@@H]2OC [Ascomycin (FK520)],-2.74,-1.82,-3.87,-1.08
C=CC(C)(C)c1cc(/C=C/C(=O)c2ccc(O)cc2)c(OC)cc1O [Licochalcone A],0.0563,1.5,0.702,0.163
Cc1c[nH]c2nc(Nc3ccc(N4CCN(C)CC4)c(F)c3)nc(-c3cccc(CC#N)c3)c12,-16.3,-6.51,-4.22,-1.49
Oc1cc(O)c(Cl)cn1 [Gimeracil],1.13,-1.54,-1.77,-0.368
NC(=O)Nc1sc(-c2ccc(F)cc2)cc1C(N)=O,0.489,0.407,-0.0605,-0.793
CC(C)(O)CC[C@@H](O)[C@](C)(O)[C@H]1CC[C@@]2(O)C3=CC(=O)[C@@H]4C[C@@H](O)[C@@H](O)C[C@]4(C)[C@H]3CC[C@]12C [20-Hydroxyecdysone],-0.482,-0.294,0.396,-0.263
COC(=O)c1ccc2c(c1)NC(=O)/C2=C(\Nc1ccc(N(C)C(=O)CN2CCN(C)CC2)cc1)c1ccccc1 [Nintedanib (BIBF 1120)],-3.72,-1.6,0.677,0.00106
COC(=O)[C@H]1[C@H]2C[C@@H]3c4[nH]c5cc(OC)ccc5c4CCN3C[C@H]2C[C@@H](OC(=O)c2cc(OC)c(OC)c(OC)c2)[C@@H]1OC [Reserpine],-1.19,-1.72,-3.4,-1.15
